Experimental data published in patent US20240156972A1 (priority 2021, published 2024).

Test: general procedure: Fmoc solid-phase peptide synthesis; Rink amide resin; DIC / OxymaPure
Conditions: for isolated yield: whole synthesis, scale of the general procedure 0.1 mmol; for step yield: purification step

Substance	isolated yield	step yield
H—Ac—(Y—OSO2F)—(N3—K)-LRMADPNRFRGRDL-NH2	34.0%	
H—Ac—(N3—K)-LRMADPNR-(Y—OSO2F)-RGRDL-NHz (Ac, azido-Lys, fluorosulfate Tyr, C-amide)	20.9%	
H-(Aryl-SO2F)—(N3—K)-LRMADPNRFRGRDL-NH2		13%
H—Ac—(N3—K)-LRMADPNRFRGRDLY-NH2		22.5%
H—Ac—(N3—K)-LRMADPNRFRGRDL-(Y—OSO2F)—NH2	44%	
